Measured values from patent US20160296536A1, “Administration of Glucocorticoid Steroids to Livestock” (Animal Biotech, LLC, priority 2015, published 2016).
For at least one compound, name, drawing or mass did not settle the structure.

Tests used:
Assay type in all cases: in vivo, piglets
[1] = Example 2: histological examination of jejunum (villi architecture); settings: 0.2 mg/kg intramuscular; P>0.42
interleukin-1β (IL-1β) = assay: Example 2: blood interleukin-1β level; settings: weaned pigs; 0.2 mg/kg intramuscular; P<0.04
[2] = Example 1: serum cortisol in piglet blood samples (commercial kit); settings: 24 h after weaning; P>0.05
Description: In a study, a total of 64 piglets (32 gilts [females] and 32 barrows [castrated males]) with initial body weight (BW) of 4.8±0.7 Kg were assigned to four treatments. Treatments were in a 4×2 factorial arrangement with a completely randomized design with two main factors: (I) control (Con), two levels of cortisol agonist (Dexamethasone; DEX; subdivided into 2 dosage levels: DEXA and DEXB), or cortisol antagonist (Metyrapone; MET), and (II) gender (gilt vs. barrow). See Table at FIG. 9, for a summary of the list of the treatments, drug dosage, and number of the animals per treatment. Dexamethasone was injected intramuscular at dosages shown, while Metyrapone was mixed with applesauce and fed to the animals with a syringe. The study lasted for 5 weeks. It began one week before weaning (14-day old piglets), and continued 4 weeks after the weaning. Pigs were weaned at the age of 21-days. Piglets received the treatments either orally via diet or by intra-muscular injection one week before and again 24 hours before weaning. […] Serum cortisol was determined using a commercial kit. Feed intake, average daily gain, feed efficiency, and mortality/morbidity was determined. Body weights (body mass) of the animals were measured on a daily basis for a week after weaning, and then on a weekly basis until the end of the study. […]

haptoglobin (Hp) = assay: Example 2: blood haptoglobin level; settings: weaned pigs; 0.2 mg/kg intramuscular; P<0.04
[3] = Example 2: body mass, daily gain, feed intake and gain-to-feed of weaned gilts
[4] = Example 2: blood antioxidant level; settings: 0.2 mg/kg intramuscular; P<0.02
[5] = 0.2 mg dexamethasone per kg, intramuscular, day before weaning and day 3 post-weaning, P<0.04

SMILES: C[C@@H]1C[C@H]2[C@@H]3CCC4=CC(=O)C=C[C@]4(C)[C@@]3(F)[C@@H](O)C[C@]2(C)[C@@]1(O)C(=O)CO [Dexamethasone]
- intestinal villi architecture in jejunum compared to WS [1]: did not improve
- IL-1β as compared to WS (interleukin-1β (IL-1β)): reduced
- effect on serum cortisol levels [2]: Neither MET nor DEX had an effect
- plasma Hp (haptoglobin) as compared to WS (haptoglobin (Hp)): reduced
- body mass (BW) relative to UWS (unweaned, saline) [3, 5]: lower
- body mass (BW) relative to WS (weaned, saline) [3, 5]: higher
- mass gain-to-feed (G:F) ratio ([3]; weaned pigs, 0.2 mg/kg intramuscular, P<0.01): higher
- antioxidant levels compared with both WS and UWS [4]: higher
